Chains of the proteins cited; added tags and fusions are not shown.
UniProt Q9NR19: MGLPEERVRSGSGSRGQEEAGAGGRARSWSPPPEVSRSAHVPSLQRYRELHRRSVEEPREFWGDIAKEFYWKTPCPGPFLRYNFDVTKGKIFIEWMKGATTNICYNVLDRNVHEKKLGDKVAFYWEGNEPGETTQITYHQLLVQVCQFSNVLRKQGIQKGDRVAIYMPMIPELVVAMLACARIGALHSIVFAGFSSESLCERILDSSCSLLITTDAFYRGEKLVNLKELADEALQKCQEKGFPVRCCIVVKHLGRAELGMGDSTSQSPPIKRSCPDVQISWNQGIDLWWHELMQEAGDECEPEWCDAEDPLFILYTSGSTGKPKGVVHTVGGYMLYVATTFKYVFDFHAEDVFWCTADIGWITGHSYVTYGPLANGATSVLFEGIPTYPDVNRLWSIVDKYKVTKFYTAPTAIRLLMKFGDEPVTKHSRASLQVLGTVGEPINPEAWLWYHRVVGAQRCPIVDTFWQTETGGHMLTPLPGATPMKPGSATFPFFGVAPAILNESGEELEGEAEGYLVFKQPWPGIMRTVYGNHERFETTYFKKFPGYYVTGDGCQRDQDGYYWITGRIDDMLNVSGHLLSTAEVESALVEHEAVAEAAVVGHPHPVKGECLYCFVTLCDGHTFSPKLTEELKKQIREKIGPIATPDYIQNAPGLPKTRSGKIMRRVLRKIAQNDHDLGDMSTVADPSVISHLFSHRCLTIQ
UniProt Q9Y238: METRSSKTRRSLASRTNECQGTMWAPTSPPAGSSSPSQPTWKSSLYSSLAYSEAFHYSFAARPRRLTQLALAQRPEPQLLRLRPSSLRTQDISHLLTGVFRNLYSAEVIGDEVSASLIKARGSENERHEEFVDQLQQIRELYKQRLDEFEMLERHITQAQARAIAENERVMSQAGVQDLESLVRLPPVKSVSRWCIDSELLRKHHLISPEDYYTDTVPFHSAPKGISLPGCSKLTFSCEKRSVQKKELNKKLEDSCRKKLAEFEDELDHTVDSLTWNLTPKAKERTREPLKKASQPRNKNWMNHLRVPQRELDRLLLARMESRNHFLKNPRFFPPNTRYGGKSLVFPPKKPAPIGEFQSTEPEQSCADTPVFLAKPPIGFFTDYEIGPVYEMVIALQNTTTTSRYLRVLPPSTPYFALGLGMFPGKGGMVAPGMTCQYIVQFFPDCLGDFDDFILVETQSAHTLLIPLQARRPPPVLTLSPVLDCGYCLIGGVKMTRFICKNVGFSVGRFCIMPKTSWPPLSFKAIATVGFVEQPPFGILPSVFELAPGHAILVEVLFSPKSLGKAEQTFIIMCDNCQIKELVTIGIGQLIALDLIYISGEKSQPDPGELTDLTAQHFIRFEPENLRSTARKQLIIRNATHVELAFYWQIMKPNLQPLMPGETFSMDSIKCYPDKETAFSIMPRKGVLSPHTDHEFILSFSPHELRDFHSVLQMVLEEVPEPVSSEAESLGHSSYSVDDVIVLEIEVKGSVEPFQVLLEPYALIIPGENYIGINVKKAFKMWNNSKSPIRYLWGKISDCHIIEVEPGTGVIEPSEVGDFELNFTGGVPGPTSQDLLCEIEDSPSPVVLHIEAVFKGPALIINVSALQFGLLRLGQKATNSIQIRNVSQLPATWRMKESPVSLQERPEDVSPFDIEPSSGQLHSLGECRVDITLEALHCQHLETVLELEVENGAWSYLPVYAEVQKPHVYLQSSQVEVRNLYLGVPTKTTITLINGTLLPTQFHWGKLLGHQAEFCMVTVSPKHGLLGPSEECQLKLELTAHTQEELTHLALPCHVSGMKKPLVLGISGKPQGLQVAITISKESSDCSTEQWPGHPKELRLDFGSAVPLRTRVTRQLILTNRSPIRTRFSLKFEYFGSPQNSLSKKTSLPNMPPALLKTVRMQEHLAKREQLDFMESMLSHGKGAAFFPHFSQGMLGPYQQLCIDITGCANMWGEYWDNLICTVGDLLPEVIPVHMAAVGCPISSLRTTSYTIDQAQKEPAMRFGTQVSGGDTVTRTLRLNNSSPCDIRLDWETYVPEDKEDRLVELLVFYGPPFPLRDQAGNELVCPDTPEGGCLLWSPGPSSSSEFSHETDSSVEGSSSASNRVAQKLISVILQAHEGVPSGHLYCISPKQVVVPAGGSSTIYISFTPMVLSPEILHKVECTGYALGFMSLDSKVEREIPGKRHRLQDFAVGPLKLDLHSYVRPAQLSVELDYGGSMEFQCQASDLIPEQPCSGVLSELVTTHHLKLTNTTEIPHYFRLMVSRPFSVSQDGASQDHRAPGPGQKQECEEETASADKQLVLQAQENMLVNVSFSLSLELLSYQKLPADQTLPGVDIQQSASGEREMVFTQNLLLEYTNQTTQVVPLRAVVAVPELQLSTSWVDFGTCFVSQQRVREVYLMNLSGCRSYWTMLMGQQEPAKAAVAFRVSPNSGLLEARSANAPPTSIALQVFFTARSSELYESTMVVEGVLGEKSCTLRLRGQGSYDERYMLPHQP
UniProt O75821: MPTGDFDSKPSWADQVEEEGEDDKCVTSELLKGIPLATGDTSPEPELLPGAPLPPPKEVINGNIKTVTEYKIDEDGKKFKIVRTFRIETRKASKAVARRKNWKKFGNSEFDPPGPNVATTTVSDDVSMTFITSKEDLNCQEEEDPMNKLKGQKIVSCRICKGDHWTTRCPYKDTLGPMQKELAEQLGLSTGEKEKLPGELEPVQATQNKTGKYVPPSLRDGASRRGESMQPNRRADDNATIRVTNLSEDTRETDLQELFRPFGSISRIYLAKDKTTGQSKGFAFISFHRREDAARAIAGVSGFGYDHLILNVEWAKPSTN
UniProt P62873: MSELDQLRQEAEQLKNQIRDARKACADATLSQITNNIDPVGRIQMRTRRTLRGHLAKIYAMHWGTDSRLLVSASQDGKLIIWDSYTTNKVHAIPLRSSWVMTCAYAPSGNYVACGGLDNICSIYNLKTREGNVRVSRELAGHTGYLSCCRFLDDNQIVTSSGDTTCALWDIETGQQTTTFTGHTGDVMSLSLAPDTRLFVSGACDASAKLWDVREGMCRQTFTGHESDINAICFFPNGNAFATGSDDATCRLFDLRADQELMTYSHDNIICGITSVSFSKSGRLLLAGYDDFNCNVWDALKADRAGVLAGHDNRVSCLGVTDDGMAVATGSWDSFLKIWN
UniProt Q15323: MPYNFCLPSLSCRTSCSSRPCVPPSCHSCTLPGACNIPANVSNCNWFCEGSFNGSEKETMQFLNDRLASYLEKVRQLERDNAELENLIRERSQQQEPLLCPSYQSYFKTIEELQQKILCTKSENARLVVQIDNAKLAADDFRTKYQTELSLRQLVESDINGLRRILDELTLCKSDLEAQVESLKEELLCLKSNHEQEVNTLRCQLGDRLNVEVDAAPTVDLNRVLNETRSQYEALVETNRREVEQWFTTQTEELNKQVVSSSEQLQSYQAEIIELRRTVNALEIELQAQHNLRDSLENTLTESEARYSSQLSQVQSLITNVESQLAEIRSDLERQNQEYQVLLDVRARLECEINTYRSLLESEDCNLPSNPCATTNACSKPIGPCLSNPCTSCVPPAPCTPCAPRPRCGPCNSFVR
UniProt Q14532: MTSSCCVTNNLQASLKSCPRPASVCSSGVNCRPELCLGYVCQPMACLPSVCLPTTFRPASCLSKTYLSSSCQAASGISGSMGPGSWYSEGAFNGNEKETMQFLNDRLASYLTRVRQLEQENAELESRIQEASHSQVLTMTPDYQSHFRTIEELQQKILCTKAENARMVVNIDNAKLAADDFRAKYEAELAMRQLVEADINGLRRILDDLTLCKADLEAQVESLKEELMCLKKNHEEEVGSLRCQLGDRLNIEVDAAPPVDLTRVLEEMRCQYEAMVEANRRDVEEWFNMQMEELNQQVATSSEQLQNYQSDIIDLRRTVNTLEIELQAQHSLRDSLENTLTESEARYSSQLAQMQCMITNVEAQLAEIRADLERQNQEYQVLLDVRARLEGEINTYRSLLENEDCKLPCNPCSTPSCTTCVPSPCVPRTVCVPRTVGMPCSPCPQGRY
UniProt Q86Y46: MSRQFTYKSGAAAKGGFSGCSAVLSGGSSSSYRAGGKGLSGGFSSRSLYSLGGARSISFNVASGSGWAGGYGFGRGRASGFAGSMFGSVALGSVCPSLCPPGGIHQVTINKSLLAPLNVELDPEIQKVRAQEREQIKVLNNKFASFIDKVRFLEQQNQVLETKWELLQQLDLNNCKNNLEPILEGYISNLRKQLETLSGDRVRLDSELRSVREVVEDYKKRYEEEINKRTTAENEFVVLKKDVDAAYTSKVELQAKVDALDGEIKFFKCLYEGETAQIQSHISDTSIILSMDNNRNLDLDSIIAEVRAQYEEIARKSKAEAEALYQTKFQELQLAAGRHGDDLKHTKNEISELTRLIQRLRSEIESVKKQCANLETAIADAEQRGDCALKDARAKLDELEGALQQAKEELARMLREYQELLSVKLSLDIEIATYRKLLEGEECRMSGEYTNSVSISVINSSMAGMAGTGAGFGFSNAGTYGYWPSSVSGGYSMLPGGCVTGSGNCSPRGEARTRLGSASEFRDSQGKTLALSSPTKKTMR
UniProt P06239: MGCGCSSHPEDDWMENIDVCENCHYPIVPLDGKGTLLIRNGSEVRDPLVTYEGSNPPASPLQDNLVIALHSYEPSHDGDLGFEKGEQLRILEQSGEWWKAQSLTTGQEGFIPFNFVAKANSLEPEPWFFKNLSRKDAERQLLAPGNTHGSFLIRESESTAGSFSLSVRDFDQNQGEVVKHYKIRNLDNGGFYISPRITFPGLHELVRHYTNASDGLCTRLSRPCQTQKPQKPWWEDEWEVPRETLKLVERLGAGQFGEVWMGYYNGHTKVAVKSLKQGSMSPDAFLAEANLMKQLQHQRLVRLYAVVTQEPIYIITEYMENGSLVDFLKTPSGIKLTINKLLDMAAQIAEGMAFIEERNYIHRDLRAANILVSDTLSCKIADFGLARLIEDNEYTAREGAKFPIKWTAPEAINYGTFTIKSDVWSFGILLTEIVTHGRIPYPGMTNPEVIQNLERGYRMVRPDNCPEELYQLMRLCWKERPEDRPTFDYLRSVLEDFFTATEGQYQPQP
UniProt P15531: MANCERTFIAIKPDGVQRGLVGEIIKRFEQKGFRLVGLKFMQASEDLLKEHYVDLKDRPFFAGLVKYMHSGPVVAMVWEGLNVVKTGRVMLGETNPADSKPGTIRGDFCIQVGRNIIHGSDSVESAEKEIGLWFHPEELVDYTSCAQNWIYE
UniProt P62491: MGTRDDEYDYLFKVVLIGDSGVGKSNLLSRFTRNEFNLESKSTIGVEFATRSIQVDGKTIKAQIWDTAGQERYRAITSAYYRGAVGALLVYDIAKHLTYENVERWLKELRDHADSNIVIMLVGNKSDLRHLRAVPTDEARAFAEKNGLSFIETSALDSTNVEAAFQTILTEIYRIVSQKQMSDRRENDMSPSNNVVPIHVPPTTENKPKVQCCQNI
UniProt P30153: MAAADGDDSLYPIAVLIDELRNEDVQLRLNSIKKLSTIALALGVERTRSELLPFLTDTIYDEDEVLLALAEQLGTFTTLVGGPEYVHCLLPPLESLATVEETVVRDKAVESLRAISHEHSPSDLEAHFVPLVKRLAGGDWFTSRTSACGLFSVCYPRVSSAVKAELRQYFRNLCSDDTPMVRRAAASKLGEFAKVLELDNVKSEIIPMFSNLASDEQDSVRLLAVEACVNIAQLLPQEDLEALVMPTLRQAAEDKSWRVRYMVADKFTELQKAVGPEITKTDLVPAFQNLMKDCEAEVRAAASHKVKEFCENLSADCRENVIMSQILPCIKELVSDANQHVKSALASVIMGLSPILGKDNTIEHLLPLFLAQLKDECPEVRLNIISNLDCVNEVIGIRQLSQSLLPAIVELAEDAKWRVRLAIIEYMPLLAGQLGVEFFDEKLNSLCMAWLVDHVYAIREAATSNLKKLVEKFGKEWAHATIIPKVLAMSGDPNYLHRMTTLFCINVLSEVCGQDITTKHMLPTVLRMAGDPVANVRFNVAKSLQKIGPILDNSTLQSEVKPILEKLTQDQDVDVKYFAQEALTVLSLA
UniProt P08670: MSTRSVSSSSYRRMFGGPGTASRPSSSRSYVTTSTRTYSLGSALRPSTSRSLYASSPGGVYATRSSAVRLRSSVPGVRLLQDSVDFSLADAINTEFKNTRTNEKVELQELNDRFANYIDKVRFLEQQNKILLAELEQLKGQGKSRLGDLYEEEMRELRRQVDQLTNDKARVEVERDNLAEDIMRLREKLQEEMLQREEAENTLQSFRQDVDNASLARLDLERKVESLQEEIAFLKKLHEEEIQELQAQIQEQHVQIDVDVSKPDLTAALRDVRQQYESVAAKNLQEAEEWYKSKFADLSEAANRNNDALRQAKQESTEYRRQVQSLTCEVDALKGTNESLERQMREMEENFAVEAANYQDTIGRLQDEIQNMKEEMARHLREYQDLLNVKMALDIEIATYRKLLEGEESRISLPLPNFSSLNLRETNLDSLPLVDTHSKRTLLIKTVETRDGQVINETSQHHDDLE

According to article PMC9102673:

B1: KRT82 (protein, UniProt Q9NSB4 1-513)
chain: MSYHSFQPGSRCGSQSFSSYSAVMPRMVTHYAVSKGPCRPGGGRGLRALGCLGSRSLCNVGFGRPRVASRCGGTLPGFGYRLGATCGPSACITPVTINESLLVPLALEIDPTVQRVKRDEKEQIKCLNNRFASFINKVRFLEQKNKLLETKWNFMQQQRCCQTNIEPIFEGYISALRRQLDCVSGDRVRLESELCSLQAALEGYKKKYEEELSLRPCVENEFVALKKDVDTAFLMKADLETNAEALVQEIDFLKSLYEEEICLLQSQISETSVIVKMDNSRELDVDGIIAEIKAQYDDIASRSKAEAEAWYQCRYEELRVTAGNHCDNLRNRKNEILEMNKLIQRLQQETENVKAQRCKLEGAIAEAEQQGEAALNDAKCKLAGLEEALQKAKQDMACLLKEYQEVMNSKLGLDIEIATYRRLLEGEEHRLCEGIGPVNISVSSSKGAFLYEPCGVSTPVLSTGVLRSNGGCSIVGTGELYVPCEPQGLLSCGSGRKSSMTLGAGGSSPSHKH
B2: ZNF622 (protein, UniProt Q969S3 1-477)
chain: MATYTCITCRVAFRDADMQRAHYKTDWHRYNLRRKVASMAPVTAEGFQERVRAQRAVAEEESKGSATYCTVCSKKFASFNAYENHLKSRRHVELEKKAVQAVNRKVEMMNEKNLEKGLGVDSVDKDAMNAAIQQAIKAQPSMSPKKAPPAPAKEARNVVAVGTGGRGTHDRDPSEKPPRLQWFEQQAKKLAKQQEEDSEEEEEDLDGDDWEDIDSDEELECEDTEAMDDVVEQDAEEEEAEEGPPLGAIPITDCLFCSHHSSSLMKNVAHMTKDHSFFIPDIEYLSDIKGLIKYLGEKVGVGKICLWCNEKGKSFYSTEAVQAHMNDKSHCKLFTDGDAALEFADFYDFRSSYPDHKEGEDPNKAEELPSEKNLEYDDETMELILPSGARVGHRSLMRYYKQRFGLSRAVAVAKNRKAVGRVLQQYRALGWTGSTGAALMRERDMQYVQRMKSKWMLKTGMKNNATKQMHFRVQVRF
B3: PGAM2 (protein, UniProt P15259 1-253)
chain: MATHRLVMVRHGESTWNQENRFCGWFDAELSEKGTEEAKRGAKAIKDAKMEFDICYTSVLKRAIRTLWAILDGTDQMWLPVVRTWRLNERHYGGLTGLNKAETAAKHGEEQVKIWRRSFDIPPPPMDEKHPYYNSISKERRYAGLKPGELPTCESLKDTIARALPFWNEEIVPQIKAGKRVLIAAHGNSLRGIVKHLEGMSDQAIMELNLPTGIPIVYELNKELKPTKPMQFLGDEETVRKAMEAVAAQGKAK
B4: KRT13 (protein, UniProt P13646 1-458)
chain: MSLRLQSSSASYGGGFGGGSCQLGGGRGVSTCSTRFVSGGSAGGYGGGVSCGFGGGAGSGFGGGYGGGLGGGYGGGLGGGFGGGFAGGFVDFGACDGGLLTGNEKITMQNLNDRLASYLEKVRALEEANADLEVKIRDWHLKQSPASPERDYSPYYKTIEELRDKILTATIENNRVILEIDNARLAADDFRLKYENELALRQSVEADINGLRRVLDELTLSKTDLEMQIESLNEELAYMKKNHEEEMKEFSNQVVGQVNVEMDATPGIDLTRVLAEMREQYEAMAERNRRDAEEWFHTKSAELNKEVSTNTAMIQTSKTEITELRRTLQGLEIELQSQLSMKAGLENTVAETECRYALQLQQIQGLISSIEAQLSELRSEMECQNQEYKMLLDIKTRLEQEIATYRSLLEGQDAKMIGFPSSAGSVSPRSTSVTTTSSASVTTTSNASGRRTSDVRRP
B5: KRT85 (protein, UniProt P78386 1-507)
chain: MSCRSYRISSGCGVTRNFSSCSAVAPKTGNRCCISAAPYRGVSCYRGLTGFGSRSLCNLGSCGPRIAVGGFRAGSCGRSFGYRSGGVCGPSPPCITTVSVNESLLTPLNLEIDPNAQCVKQEEKEQIKSLNSRFAAFIDKVRFLEQQNKLLETKWQFYQNQRCCESNLEPLFSGYIETLRREAECVEADSGRLASELNHVQEVLEGYKKKYEEEVALRATAENEFVVLKKDVDCAYLRKSDLEANVEALVEESSFLRRLYEEEIRVLQAHISDTSVIVKMDNSRDLNMDCIIAEIKAQYDDVASRSRAEAESWYRSKCEEMKATVIRHGETLRRTKEEINELNRMIQRLTAEIENAKCQRAKLEAAVAEAEQQGEAALSDARCKLAELEGALQKAKQDMACLLKEYQEVMNSKLGLDIEIATYRRLLEGEEHRLCEGVGSVNVCVSSSRGGVSCGGLSYSTTPGRQITSGPSAIGGSITVVAPDSCAPCQPRSSSFSCGSSRSVRFA
B6: E2F7 (protein, UniProt Q96AV8 1-911)
chain: MEVNCLTLKDLISPRQPRLDFAVEDGENAQKENIFVDRSRMAPKTPIKNEPIDLSKQKKFTPERNPITPVKFVDRQQAEPWTPTANLKMLISAASPDIRDREKKKGLFRPIENKDDAFTDSLQLDVVGDSAVDEFEKQRPSRKQKSLGLLCQKFLARYPSYPLSTEKTTISLDEVAVSLGVERRRIYDIVNVLESLHLVSRVAKNQYGWHGRHSLPKTLRNLQRLGEEQKYEEQMAYLQQKELDLIDYKFGERKKDGDPDSQEQQLLDFSEPDCPSSSANSRKDKSLRIMSQKFVMLFLVSKTKIVTLDVAAKILIEESQDAPDHSKFKTKVRRLYDIANVLTSLALIKKVHVTEERGRKPAFKWIGPVDFSSSDEELVDVSASVLPELKRETYGQIQVCAKQKLARHGSFNTVQASERIQRKVNSEPSSPYREEQGSGGYSLEIGSLAAVYRQKIEDNSQGKAFASKRVVPPSSSLDPVAPFPVLSVDPEYCVNPLAHPVFSVAQTDLQAFSMQNGLNGQVDVSLASAASAVESLKPALLAGQPLVYVPSASLFMLYGSLQEGPASGSGSERDDRSSEAPATVELSSAPSAQKRLCEERKPQEEDEPATKRQSREYEDGPLSLVMPKKPSDSTDLASPKTMGNRASIPLKDIHVNGQLPAAEEISGKATANSLVSSEWGNPSRNTDVEKPSKENESTKEPSLLQYLCVQSPAGLNGFNVLLSGSQTPPTVGPSSGQLPSFSVPCMVLPSPPLGPFPVLYSPAMPGPVSSTLGALPNTGPVNFSLPGLGSIAQLLVGPTAVVNPKSSTLPSADPQLQSQPSLNLSPVMSRSHSVVQQPESPVYVGHPVSVVKLHQSPVPVTPKSIQRTHRETFFKTPGSLGDPVLKRRERNQSRNTSSAQRRLEIPSGGAD
B7: KRT86 (protein, UniProt O43790 1-486)
chain: MTCGSYCGGRAFSCISACGPRPGRCCITAAPYRGISCYRGLTGGFGSHSVCGGFRAGSCGRSFGYRSGGVCGPSPPCITTVSVNESLLTPLNLEIDPNAQCVKQEEKEQIKSLNSRFAAFIDKVRFLEQQNKLLETKLQFYQNRECCQSNLEPLFEGYIETLRREAECVEADSGRLASELNHVQEVLEGYKKKYEEEVSLRATAENEFVALKKDVDCAYLRKSDLEANVEALIQEIDFLRRLYEEEIRVLQSHISDTSVVVKLDNSRDLNMDCIIAEIKAQYDDIVTRSRAEAESWYRSKCEEMKATVIRHGETLRRTKEEINELNRMIQRLTAEVENAKCQNSKLEAAVAQSEQQGEAALSDARCKLAELEGALQKAKQDMACLIREYQEVMNSKLGLDIEIATYRRLLEGEEQRLCEGVGSVNVCVSSSRGGVVCGDLCASTTAPVVSTRVSSVPSNSNVVVGTTNACAPSARVGVCGGSCKRC

molecular target: T1, DDIT4–APEX2 fusion protein (rigid linker) (human) (UniProt Q9NX09); experiment: proximity labelling; DDIT4–APEX2 (rigid linker) expressed in SK-N-SH cells; 1 mM biotin tyramide 45 min at 37 °C with or without 330 μM NaAsO2, 1 mM H2O2 for 1.5 min; biotinylated proteins captured on streptavidin magnetic particles and identified by LC-MS/MS; proteins labelled by APEX2 alone filtered out
T1 sequence: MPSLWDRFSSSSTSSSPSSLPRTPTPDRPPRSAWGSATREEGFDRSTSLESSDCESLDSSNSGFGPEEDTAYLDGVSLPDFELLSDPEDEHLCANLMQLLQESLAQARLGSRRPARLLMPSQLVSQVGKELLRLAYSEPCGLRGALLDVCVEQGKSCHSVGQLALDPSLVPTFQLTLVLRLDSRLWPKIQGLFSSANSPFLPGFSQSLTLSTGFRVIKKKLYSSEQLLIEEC

binding, binds:
ACSS2 (from UniProt Q9NR19 1-701)
ALPK2 (from UniProt Q86TB3 1-2170)
ASCC3 (from UniProt Q8N3C0 1-2202)
CDK5 (from UniProt Q00535 1-292)
DLEC1 (from UniProt Q9Y238 1-1755)
EIF3G (from UniProt O75821 1-320)
GNB1 (from UniProt P62873 1-340)
KRT6C (from UniProt P48668 1-564)
KRT31 (from UniProt Q15323 1-416)
KRT32 (from UniProt Q14532 1-448)
KRT33A (from UniProt O76009 1-404)
KRT33B (from UniProt Q14525 1-404)
KRT34 (from UniProt O76011 1-394)
KRT71 (from UniProt Q3SY84 1-523)
KRT73 (from UniProt Q86Y46 1-540)
LCK (from UniProt P06239 1-509)
LYAR (from UniProt Q9NX58 1-379)
NKX2-5 (from UniProt P52952 1-324)
NME/NM23 nucleoside diphosphate kinase 1 (NME1) (from UniProt P15531 1-152)
NOTCH2 (from UniProt Q04721 26-2471)
OBSL1 (from UniProt O75147 1-1896)
PTPN11 (from UniProt Q06124 1-593)
RAB11A (from UniProt P62491 1-216)
keratin 17 (KRT17) (from UniProt Q04695 1-432)
protein phosphatase 2 scaffold subunit A (PPP2R1A) (from UniProt P30153 1-589)
structural maintenance of chromosomes 3 (SMC3) (from UniProt Q9UQE7 1-1217)
vimentin (VIM) (from UniProt P08670 1-466)
B1
B2
B3
B4
B5
B6
B7

No constants are given. Whether binding was seen depends on the method and setting. Binding seen in cells or lysates may run through a third protein. Here binding means that the protein was enriched with, or labelled near, the bait; the list need not be complete. Sequences can lack the tags named with a protein.
